Experimental data published in US11304418B2, “Substituted n-(-1,3,4-oxadiazole-2-yl)aryl carboxamides and the use thereof as herbicides” (Bayer CropScience Aktiengesellschaft, priority 2017, dated 2022).
Some entries share one result that the patent states for a list of compounds.

How the values were obtained:
Assay type in all cases: in vivo
Echinochloa crus galli [1] = assay: Pre-emergence herbicidal action against harmful plants; conditions: 320 g/ha, scored visually after 3 weeks vs untreated controls
Setaria viridis [2] = assay: as above; conditions: 320 g/ha, scored visually after 3 weeks vs untreated controls
Amaranthus retroflexus [3] = assay: as above; conditions: 320 g/ha, scored visually after 3 weeks vs untreated controls
Stellaria media [4] = assay: as above; conditions: 320 g/ha, scored visually after 3 weeks vs untreated controls
Veronica persica = assay: as above; conditions: 320 g/ha, scored visually after 3 weeks vs untreated controls
Viola tricolor [5] = assay: as above; conditions: 320 g/ha, scored visually after 3 weeks vs untreated controls
Echinochloa crus galli [6] = assay: Post-emergence herbicidal action against harmful plants; conditions: 80 g/ha, assessed visually after about 3 weeks vs untreated controls
Setaria viridis [7] = assay: as above; conditions: 80 g/ha, assessed visually after about 3 weeks vs untreated controls
Abutilon theophrasti = assay: as above; conditions: 80 g/ha, assessed visually after about 3 weeks vs untreated controls
Amaranthus retroflexus [8] = assay: as above; conditions: 80 g/ha, assessed visually after about 3 weeks vs untreated controls
Stellaria media [9] = assay: as above; conditions: 80 g/ha, assessed visually after about 3 weeks vs untreated controls
Viola tricolor [10] = assay: as above; conditions: 80 g/ha, assessed visually after about 3 weeks vs untreated controls

CSc1c(Cl)cc(F)c(C(=O)Nc2nnc(C)o2)c1Cl [2-242, 2,4-dichloro-6-fluoro-N-(5-methyl-1,3,4-oxadiazol-2-yl)-3-(methylsulfanyl)benzamide]
at least 80%: efficacy (herbicidal activity in percent) (Echinochloa crus galli [1]) | efficacy (herbicidal activity in percent) (Setaria viridis [2]) | efficacy (herbicidal activity in percent) (Amaranthus retroflexus [3]) | efficacy (herbicidal activity in percent) (Stellaria media [4]) | efficacy (herbicidal activity in percent) (Veronica persica) | efficacy (herbicidal activity in percent) (Viola tricolor [5]) | efficacy (herbicidal action in percent) (Echinochloa crus galli [6]) | efficacy (herbicidal action in percent) (Setaria viridis [7]) | efficacy (herbicidal action in percent) (Abutilon theophrasti) | efficacy (herbicidal action in percent) (Amaranthus retroflexus [8]) | efficacy (herbicidal action in percent) (Stellaria media [9]) | efficacy (herbicidal action in percent) (Viola tricolor [10])

Cc1nnc(NC(=O)c2c(F)cc(Cl)c([S+](C)[O-])c2Cl)o1 (stereo not drawn) [2-243, 2,4-dichloro-6-fluoro-N-(5-methyl-1,3,4-oxadiazol-2-yl)-3-(methylsulfinyl)benzamide]
at least 80%: efficacy (herbicidal activity in percent) (Echinochloa crus galli [1]) | efficacy (herbicidal activity in percent) (Setaria viridis [2]) | efficacy (herbicidal activity in percent) (Amaranthus retroflexus [3]) | efficacy (herbicidal activity in percent) (Stellaria media [4]) | efficacy (herbicidal activity in percent) (Veronica persica) | efficacy (herbicidal activity in percent) (Viola tricolor [5]) | efficacy (herbicidal action in percent) (Echinochloa crus galli [6]) | efficacy (herbicidal action in percent) (Setaria viridis [7]) | efficacy (herbicidal action in percent) (Abutilon theophrasti) | efficacy (herbicidal action in percent) (Amaranthus retroflexus [8]) | efficacy (herbicidal action in percent) (Stellaria media [9]) | efficacy (herbicidal action in percent) (Viola tricolor [10])
